Usually AC50 stands for the concentration giving half of the maximal activity seen.

This is one part of the list. The main result of the screen is listed elsewhere. These columns were measured beside it and carry no call. The list favours compounds with an active or inconclusive main result. Potencies come from curve fits of mixed quality, noted in brackets.

This test can be described thus: Cell signaling CRE-BLA (Fsk stim). Conditions: CHO CRE-bla reporter (cAMP response element driving beta-lactamase), forskolin EC10, beta-lactamase ratio; measured here: 460 nm blue channel. In a few lines: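 CRE-bla CHO reporter cells treated with compound titration plus EC10 NKH 477 (water-soluble forskolin), incubated 3 h at 37 °C; CCF4 loading 2 h at room temperature, 460/530 nm emission ratio read, AC50 values derived for positive or negative modulators.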
On to `COC(=O)CCC(=O)N1CCc2cc(S(=O)(=O)N3CCc4ccccc43)ccc21`, for which the AC50 is 25.1 µM [rising, single point].

As to `O=C(O)[C@@H]1[C@@H]2O[C@H]([C@@H](Br)[C@H]2Br)[C@H]1C(=O)O`, the AC50 is 5.01 µM [rising, single point].

`CCOc1ccc(-c2nnn(CC(=O)c3ccc4c(c3)OCCO4)n2)cc1OCC`: the AC50 was 12.6 µM [rising, partial curve].

Consider `CCCN(C#N)c1nc(NCC)nc(NC(C)C)n1`, for which the AC50 was 15.8 µM [rising, partial curve].

Turning to `COc1ccc(-c2cc(C(F)(F)F)nc(S(C)(=O)=O)n2)cc1OC`, the AC50 was 0.398 µM [falling, full curve].

Consider `COc1ccccc1C1CC(c2ccc(F)cc2)Nc2ncnn21` (centres undefined), for which the AC50 is 2.51 µM [falling, partial curve].

With `O=C1CCCN1CCCNc1ncnc2c1cnn2-c1ccc(Cl)cc1`, the AC50 is 3.16 µM [rising, full curve].

Consider `CCn1c(SCC(=O)NC(=O)Nc2ccc3c(c2)OCCO3)nnc1-c1cccs1`, for which the AC50 is 12.6 µM [rising, single point].

For the compound `CCc1nc2cc(C)nn2c2nc3ccccc3n12`, the AC50 is 3.98 µM [rising, full curve].

Consider `CCN1CCCC1CNC(=O)c1ccc(N2CCCC2=O)cc1` (centres undefined), for which the AC50 is 6.31 µM [falling, partial curve].

As for `Fc1ccc(-c2cc(C(F)(F)F)nc(-n3cncn3)n2)cc1`, the AC50 was 3.16 µM [falling, partial curve].

For the compound `CC(C)Cn1c(CN(C)Cc2ccccc2)nc2c1c(=O)n(C)c(=O)n2C`, the AC50 was 12.6 µM [rising, partial curve].

Regarding `Cc1cc2cc(CCNC(=O)CC(C)(C)C)c(=O)[nH]c2cc1C`, the AC50 is 15.8 µM [rising, single point].

For `CN(C)c1ccc(/C=[N+](\[O-])C(C)(C)/C=N/O)cc1`, the AC50 was 3.16 µM [falling, partial curve, poor fit].

With `Cn1c(C(C#N)/C(=N\S(=O)(=O)c2cccs2)c2ccccc2)nc2ccccc21` (centres undefined), the AC50 is 20 µM [rising, partial curve].

Take `CN(C)c1ccc(-c2cc(N(C)Cc3ccco3)ncn2)cc1`: the AC50 is 6.31 µM [rising, partial curve].

For `Cc1c(-c2nc(N)nc(Nc3ccc(F)cc3)n2)oc2ccccc12`, the AC50 was 20 µM [rising, partial curve, poor fit].

Consider `CCCN1CCCc2cc(CN)ccc21`, for which the AC50 was 12.6 µM [rising, single point].

As to `Cn1c(=O)oc2cc(S(=O)(=O)N3CCN(Cc4ccc5c(c4)OCO5)CC3)ccc21`, the AC50 is 12.6 µM [falling, single point].

On to `COC(=O)C(C)Sc1ccc2nnc(-c3cccc(F)c3)n2n1` (centres undefined), for which the AC50 is 10 µM [rising, partial curve].

Take `CCc1c(C)c2ccc(O)c(CN(C)C)c2oc1=O`: the AC50 was 12.6 µM [rising, partial curve].

Turning to `C[N+](C)(C)[C@@H](C1=CCCC1=O)c1ccccc1`, the AC50 is 0.794 µM [rising, partial curve].

As for `COc1cc(C2=NOC(C(=O)N3CCN(c4ccc(F)cc4)CC3)C2)cc(OC)c1OC` (centres undefined), the AC50 was 10 µM [rising, single point].

Consider `COc1cccc(N2CCN(C3OC(=O)c4ccccc43)CC2)c1` (centres undefined), for which the AC50 is 2.51 µM [falling, full curve, poor fit].

On to `O=c1c(-c2cccs2)nc2cncnc2n1C1CC1`, for which the AC50 is 5.01 µM [rising, partial curve].

With `Cn1c(COc2ccc(Cl)cc2)nnc1SCc1ncc(-c2ccccc2)o1`, the AC50 was 5.01 µM [falling, single point].

Take `COc1ccc2nc(NC(=O)C(NS(=O)(=O)c3cccs3)C(C)C)sc2c1` (centres undefined): the AC50 is 25.1 µM [rising, single point].

On to `CCC/C=C(\CCC)C(NC(=O)c1ccc(C(F)(F)F)cc1)c1ccccc1` (centres undefined), for which the AC50 is 3.98 µM [rising, partial curve].

With `Cc1ccc(C)c(NS(=O)(=O)c2c(C)ccc3nsnc23)c1`, the AC50 was 5.01 µM [falling, single point].

On to `O=C(O)c1ccc(C(=O)O)c(C(=O)Nc2ccc3c(c2)Cc2ccccc2-3)c1`, for which the AC50 is 0.631 µM [falling, partial curve].

Regarding `Fc1cccc(NCc2ccoc2)c1`, the AC50 is 0.794 µM [rising, partial curve].

Turning to `Cc1cccc2cc3c(nc12)SC(=NCC1CCCO1)N(Cc1ccco1)C3` (centres undefined), the AC50 was 3.16 µM [falling, full curve].

On to `Nc1c(S(=O)(=O)c2cccs2)c2nc3ccccc3nc2n1/N=C/c1cccc(O)c1`, for which the AC50 is 2.51 µM [rising, partial curve].

With `CN1CCN(c2ncc3nc(-c4cccs4)c(=O)n(CCC#N)c3n2)CC1`, the AC50 is 10 µM [rising, partial curve].

For the compound `Cc1cc(C)c2c(=O)n(CC(=O)N3CCC(Cc4ccccc4)CC3)sc2n1`, the AC50 was 25.1 µM [falling, single point].

As for `COC(=O)c1cccc(C(=O)Nc2ccc(C)cc2Br)n1`, the AC50 was 0.0251 µM [falling, full curve, poor fit].

In the case of `Cc1cc(C)n2nc(C(=O)Oc3ccc4c(c3)OCO4)nc2n1`, the AC50 was 5.01 µM [falling, single point].

With `Cc1cc(C)n(-c2ncc(-c3ccccc3)nn2)n1`, the AC50 was 20 µM [rising, single point].

On to `Cc1ccc(SCCNS(=O)(=O)c2ccc(F)cc2)cc1`, for which the AC50 is 0.398 µM [falling, partial curve].

For `CCOC(=O)c1c(Nc2nc(C)c(C(=O)NC)s2)sc(C)c1C`, the AC50 is 1.58 µM [rising, full curve].

As for `CCn1cnc2c1c(=O)n(Cc1csc(-c3ccccc3)n1)c(=O)n2Cc1ccccc1`, the AC50 was 7.94 µM [rising, partial curve].

In the case of `COc1cccc(CNc2nc3nc(C)c(Cl)c(C)n3n2)c1`, the AC50 is 12.6 µM [rising, partial curve].

`Cc1ccc(-c2nnn(CC(=O)NC3CC4CCC3C4)n2)cc1` (centres undefined): the AC50 is 0.00631 µM [falling, full curve, poor fit].

As to `CCC(=O)N1c2ccc(S(=O)(=O)CCC(=O)N3CCn4c3nc3ccccc34)cc2CC1C` (centres undefined), the AC50 was 0.1 µM [falling, partial curve, poor fit].

For the origin of these results see PubChem BioAssay AID662 (National Center for Advancing Translational Sciences (NCATS), 2007).
